In assay [1] the target is T1, CD44 (mouse (endogenous in BV2)) (UniProt P15379).
T1 sequence: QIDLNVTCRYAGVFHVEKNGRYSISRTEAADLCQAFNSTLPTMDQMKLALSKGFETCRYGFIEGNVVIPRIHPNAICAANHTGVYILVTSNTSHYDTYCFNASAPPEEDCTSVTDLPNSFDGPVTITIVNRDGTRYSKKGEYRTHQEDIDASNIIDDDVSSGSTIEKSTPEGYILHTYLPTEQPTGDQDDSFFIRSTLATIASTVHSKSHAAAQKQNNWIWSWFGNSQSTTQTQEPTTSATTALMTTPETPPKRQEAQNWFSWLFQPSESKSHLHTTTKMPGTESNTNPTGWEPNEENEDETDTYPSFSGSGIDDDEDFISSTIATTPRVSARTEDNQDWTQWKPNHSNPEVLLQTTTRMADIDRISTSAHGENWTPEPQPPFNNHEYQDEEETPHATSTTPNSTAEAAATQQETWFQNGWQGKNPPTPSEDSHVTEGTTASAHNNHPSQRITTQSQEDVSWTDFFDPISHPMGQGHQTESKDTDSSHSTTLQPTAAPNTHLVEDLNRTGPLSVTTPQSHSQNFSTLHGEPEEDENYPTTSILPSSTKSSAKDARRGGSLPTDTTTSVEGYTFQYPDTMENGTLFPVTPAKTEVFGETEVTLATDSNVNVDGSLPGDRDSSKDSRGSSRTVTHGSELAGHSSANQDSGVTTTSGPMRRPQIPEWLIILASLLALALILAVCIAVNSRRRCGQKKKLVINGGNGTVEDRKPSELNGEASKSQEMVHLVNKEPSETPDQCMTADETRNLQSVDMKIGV
Put plainly: co-IP; BV2 cell lysates (RIPA buffer) incubated with antibodies against KLK8 or CD44 at 4 °C for 16 h, protein A and G sepharose beads, four washes, western blot; IgG as control.

Assay [2] concerns the target T2, Tissue kallikrein-related peptidase 8 (KLK8) (UniProt Q61955).
T2 sequence: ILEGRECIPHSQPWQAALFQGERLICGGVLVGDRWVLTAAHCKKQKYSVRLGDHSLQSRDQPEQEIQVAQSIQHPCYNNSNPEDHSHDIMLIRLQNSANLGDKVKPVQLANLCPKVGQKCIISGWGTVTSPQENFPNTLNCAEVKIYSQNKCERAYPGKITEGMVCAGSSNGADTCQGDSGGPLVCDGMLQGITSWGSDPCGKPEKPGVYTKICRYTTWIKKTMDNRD
Described as above.

No constants are given. Whether binding was seen depends on the method and setting. Binding seen in cells or lysates may run through a third protein. Some entries that bind do so weakly or less than the wild type.

B1: Tissue kallikrein-related peptidase 8 (KLK8) (enzyme, UniProt Q61955 33-260)
chain: ILEGRECIPHSQPWQAALFQGERLICGGVLVGDRWVLTAAHCKKQKYSVRLGDHSLQSRDQPEQEIQVAQSIQHPCYNNSNPEDHSHDIMLIRLQNSANLGDKVKPVQLANLCPKVGQKCIISGWGTVTSPQENFPNTLNCAEVKIYSQNKCERAYPGKITEGMVCAGSSNGADTCQGDSGGPLVCDGMLQGITSWGSDPCGKPEKPGVYTKICRYTTWIKKTMDNRD
As to B1, the binding result in assay [1] is “binds”.

B2: CD44 (receptor, UniProt P15379 23-778)
chain: QIDLNVTCRYAGVFHVEKNGRYSISRTEAADLCQAFNSTLPTMDQMKLALSKGFETCRYGFIEGNVVIPRIHPNAICAANHTGVYILVTSNTSHYDTYCFNASAPPEEDCTSVTDLPNSFDGPVTITIVNRDGTRYSKKGEYRTHQEDIDASNIIDDDVSSGSTIEKSTPEGYILHTYLPTEQPTGDQDDSFFIRSTLATIASTVHSKSHAAAQKQNNWIWSWFGNSQSTTQTQEPTTSATTALMTTPETPPKRQEAQNWFSWLFQPSESKSHLHTTTKMPGTESNTNPTGWEPNEENEDETDTYPSFSGSGIDDDEDFISSTIATTPRVSARTEDNQDWTQWKPNHSNPEVLLQTTTRMADIDRISTSAHGENWTPEPQPPFNNHEYQDEEETPHATSTTPNSTAEAAATQQETWFQNGWQGKNPPTPSEDSHVTEGTTASAHNNHPSQRITTQSQEDVSWTDFFDPISHPMGQGHQTESKDTDSSHSTTLQPTAAPNTHLVEDLNRTGPLSVTTPQSHSQNFSTLHGEPEEDENYPTTSILPSSTKSSAKDARRGGSLPTDTTTSVEGYTFQYPDTMENGTLFPVTPAKTEVFGETEVTLATDSNVNVDGSLPGDRDSSKDSRGSSRTVTHGSELAGHSSANQDSGVTTTSGPMRRPQIPEWLIILASLLALALILAVCIAVNSRRRCGQKKKLVINGGNGTVEDRKPSELNGEASKSQEMVHLVNKEPSETPDQCMTADETRNLQSVDMKIGV
Regarding B2, in assay [2], the binding result was “binds”.

Values taken from publication PMC12159841.
